Reference: the supplement of paper PMC12819154, “High-throughput peptide-centric local stability assay extends protein–ligand identification to membrane proteins, tissues and bacteria” (Nature Structural & Molecular Biology, 2025)
The other results are listed elsewhere or left out. Most values lie at the level of the controls, where differences are scatter.

Sequences of proteins named here, by UniProt entry; tags and fusion partners are left off. A change or cut given only in a name is not applied to a line headed by its entry.
UniProt P15977: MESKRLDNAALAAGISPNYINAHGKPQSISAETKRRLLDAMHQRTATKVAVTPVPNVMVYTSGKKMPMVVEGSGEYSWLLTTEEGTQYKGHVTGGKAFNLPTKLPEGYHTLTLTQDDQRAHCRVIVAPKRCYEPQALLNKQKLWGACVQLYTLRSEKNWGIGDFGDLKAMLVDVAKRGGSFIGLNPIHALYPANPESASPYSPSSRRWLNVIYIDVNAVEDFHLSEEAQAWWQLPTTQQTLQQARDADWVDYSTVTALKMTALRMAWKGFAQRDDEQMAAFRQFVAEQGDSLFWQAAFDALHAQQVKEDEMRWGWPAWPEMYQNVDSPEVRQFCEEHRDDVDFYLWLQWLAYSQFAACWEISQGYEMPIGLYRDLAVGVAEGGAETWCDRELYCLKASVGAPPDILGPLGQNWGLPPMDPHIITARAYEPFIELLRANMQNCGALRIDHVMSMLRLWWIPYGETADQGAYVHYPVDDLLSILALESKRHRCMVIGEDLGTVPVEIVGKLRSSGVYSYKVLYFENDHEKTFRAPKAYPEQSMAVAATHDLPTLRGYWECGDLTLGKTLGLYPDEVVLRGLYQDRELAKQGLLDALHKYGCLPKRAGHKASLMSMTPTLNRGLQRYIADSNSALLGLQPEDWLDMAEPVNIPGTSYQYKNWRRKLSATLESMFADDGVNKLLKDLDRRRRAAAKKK
UniProt P0DPP7: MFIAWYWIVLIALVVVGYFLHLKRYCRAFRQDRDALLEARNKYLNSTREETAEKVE
UniProt P21866: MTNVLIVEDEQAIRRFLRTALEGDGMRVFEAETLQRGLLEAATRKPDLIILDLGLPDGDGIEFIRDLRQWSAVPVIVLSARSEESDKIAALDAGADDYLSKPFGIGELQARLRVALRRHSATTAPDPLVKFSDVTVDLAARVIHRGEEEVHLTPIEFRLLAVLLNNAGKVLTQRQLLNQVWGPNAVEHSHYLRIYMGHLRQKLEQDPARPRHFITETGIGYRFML
UniProt P22255: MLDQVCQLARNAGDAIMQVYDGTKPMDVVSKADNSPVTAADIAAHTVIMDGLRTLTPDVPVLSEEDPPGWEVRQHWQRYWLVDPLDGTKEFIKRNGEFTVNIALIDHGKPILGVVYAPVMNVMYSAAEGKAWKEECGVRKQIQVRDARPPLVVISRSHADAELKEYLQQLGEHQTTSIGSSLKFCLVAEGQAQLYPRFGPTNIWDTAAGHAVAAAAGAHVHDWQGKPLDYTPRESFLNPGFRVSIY
UniProt P0CF88: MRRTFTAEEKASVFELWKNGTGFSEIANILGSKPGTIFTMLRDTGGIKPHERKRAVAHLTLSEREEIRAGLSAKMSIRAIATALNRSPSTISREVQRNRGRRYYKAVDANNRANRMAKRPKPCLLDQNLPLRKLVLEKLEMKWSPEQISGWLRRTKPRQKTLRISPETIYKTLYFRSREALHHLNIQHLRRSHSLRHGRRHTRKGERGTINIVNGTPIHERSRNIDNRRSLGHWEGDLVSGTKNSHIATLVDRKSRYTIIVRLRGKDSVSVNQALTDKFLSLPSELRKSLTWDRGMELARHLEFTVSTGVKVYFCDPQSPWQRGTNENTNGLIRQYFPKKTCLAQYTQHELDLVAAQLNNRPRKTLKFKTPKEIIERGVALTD
UniProt P23841: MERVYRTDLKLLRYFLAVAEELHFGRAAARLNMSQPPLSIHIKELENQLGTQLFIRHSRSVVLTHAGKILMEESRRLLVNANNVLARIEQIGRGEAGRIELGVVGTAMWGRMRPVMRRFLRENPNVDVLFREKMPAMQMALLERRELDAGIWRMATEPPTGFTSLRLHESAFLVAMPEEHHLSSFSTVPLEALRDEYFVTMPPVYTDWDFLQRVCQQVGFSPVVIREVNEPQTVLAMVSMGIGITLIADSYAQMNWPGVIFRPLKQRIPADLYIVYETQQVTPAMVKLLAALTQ
UniProt P18811: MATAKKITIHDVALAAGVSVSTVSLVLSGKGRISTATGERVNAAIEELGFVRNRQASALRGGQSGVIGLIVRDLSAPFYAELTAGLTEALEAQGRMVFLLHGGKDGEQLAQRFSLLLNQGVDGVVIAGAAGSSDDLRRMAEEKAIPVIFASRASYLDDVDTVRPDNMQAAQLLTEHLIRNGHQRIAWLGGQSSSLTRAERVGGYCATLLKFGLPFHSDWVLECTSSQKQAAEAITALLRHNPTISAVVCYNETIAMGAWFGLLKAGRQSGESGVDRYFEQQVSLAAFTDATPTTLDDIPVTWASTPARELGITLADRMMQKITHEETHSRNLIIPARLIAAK
UniProt P11290: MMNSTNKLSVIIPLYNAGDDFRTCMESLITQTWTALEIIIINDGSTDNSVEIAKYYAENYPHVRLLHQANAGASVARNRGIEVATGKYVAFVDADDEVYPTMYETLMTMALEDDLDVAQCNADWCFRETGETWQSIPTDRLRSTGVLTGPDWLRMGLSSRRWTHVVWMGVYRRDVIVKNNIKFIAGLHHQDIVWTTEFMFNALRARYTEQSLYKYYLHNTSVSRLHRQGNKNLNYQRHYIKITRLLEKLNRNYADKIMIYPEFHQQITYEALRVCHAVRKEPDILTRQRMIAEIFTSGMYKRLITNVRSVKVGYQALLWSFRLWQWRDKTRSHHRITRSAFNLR
UniProt P20083: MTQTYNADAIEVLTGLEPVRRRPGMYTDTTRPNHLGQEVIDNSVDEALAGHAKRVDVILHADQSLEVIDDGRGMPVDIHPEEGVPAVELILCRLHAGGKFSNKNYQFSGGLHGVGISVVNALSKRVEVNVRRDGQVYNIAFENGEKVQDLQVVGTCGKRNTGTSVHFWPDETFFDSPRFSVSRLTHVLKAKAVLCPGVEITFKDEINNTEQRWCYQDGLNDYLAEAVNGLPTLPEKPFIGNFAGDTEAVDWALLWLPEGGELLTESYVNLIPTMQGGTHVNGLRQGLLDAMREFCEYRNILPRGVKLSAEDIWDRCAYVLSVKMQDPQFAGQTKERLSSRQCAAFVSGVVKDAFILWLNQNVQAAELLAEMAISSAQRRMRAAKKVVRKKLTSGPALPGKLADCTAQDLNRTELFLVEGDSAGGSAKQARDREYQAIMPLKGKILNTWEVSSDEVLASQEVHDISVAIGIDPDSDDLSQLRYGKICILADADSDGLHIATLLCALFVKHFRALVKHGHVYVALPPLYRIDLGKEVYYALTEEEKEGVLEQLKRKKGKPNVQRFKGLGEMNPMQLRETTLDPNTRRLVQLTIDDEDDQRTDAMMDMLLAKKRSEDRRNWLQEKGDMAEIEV
UniProt P17169: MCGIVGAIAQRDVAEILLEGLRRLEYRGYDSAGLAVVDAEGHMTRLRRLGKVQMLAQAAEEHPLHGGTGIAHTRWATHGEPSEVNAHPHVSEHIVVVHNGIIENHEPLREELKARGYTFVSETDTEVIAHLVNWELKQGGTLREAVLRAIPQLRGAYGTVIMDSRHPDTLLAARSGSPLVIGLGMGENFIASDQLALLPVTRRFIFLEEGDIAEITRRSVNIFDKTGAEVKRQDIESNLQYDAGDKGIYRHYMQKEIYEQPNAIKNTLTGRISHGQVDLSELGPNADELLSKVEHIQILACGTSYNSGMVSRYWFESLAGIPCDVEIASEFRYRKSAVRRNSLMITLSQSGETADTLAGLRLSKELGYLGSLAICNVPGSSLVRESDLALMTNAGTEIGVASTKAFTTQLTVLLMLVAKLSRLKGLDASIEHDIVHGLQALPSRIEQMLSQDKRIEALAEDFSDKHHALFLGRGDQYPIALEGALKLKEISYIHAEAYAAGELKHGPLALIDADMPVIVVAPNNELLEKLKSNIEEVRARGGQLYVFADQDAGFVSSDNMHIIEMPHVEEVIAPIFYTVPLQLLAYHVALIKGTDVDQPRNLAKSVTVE
UniProt P21865: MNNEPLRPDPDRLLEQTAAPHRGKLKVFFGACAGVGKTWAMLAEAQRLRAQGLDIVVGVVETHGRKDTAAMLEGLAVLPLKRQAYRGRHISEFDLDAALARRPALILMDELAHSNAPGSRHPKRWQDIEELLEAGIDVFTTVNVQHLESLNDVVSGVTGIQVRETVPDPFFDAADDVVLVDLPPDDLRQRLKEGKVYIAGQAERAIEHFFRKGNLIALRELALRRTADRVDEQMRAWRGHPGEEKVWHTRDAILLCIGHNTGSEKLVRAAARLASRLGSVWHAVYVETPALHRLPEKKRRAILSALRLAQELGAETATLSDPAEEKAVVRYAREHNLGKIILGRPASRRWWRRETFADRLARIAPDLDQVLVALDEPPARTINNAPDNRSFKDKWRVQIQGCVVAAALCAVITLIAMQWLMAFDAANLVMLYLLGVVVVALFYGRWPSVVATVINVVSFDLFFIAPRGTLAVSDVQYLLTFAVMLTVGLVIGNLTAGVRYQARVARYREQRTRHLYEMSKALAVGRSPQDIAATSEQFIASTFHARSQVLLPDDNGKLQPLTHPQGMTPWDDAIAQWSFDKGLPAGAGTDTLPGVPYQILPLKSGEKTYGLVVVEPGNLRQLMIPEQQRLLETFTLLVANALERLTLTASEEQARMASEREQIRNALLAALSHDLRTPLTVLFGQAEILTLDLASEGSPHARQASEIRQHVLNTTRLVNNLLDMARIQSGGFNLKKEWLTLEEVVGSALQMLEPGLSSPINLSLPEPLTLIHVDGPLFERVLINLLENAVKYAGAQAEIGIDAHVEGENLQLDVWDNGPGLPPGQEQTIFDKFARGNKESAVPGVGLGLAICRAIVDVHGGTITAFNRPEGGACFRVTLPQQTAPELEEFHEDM
UniProt P10423: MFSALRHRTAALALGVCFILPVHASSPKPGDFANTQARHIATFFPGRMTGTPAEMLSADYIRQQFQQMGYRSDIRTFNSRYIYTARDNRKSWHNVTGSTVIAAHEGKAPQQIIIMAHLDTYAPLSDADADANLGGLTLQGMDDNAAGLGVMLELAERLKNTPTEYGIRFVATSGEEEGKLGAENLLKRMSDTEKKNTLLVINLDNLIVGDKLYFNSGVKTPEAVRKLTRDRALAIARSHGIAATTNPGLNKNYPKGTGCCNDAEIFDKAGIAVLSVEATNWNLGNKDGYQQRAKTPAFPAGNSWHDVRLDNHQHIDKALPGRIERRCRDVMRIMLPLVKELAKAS
UniProt P0CK95: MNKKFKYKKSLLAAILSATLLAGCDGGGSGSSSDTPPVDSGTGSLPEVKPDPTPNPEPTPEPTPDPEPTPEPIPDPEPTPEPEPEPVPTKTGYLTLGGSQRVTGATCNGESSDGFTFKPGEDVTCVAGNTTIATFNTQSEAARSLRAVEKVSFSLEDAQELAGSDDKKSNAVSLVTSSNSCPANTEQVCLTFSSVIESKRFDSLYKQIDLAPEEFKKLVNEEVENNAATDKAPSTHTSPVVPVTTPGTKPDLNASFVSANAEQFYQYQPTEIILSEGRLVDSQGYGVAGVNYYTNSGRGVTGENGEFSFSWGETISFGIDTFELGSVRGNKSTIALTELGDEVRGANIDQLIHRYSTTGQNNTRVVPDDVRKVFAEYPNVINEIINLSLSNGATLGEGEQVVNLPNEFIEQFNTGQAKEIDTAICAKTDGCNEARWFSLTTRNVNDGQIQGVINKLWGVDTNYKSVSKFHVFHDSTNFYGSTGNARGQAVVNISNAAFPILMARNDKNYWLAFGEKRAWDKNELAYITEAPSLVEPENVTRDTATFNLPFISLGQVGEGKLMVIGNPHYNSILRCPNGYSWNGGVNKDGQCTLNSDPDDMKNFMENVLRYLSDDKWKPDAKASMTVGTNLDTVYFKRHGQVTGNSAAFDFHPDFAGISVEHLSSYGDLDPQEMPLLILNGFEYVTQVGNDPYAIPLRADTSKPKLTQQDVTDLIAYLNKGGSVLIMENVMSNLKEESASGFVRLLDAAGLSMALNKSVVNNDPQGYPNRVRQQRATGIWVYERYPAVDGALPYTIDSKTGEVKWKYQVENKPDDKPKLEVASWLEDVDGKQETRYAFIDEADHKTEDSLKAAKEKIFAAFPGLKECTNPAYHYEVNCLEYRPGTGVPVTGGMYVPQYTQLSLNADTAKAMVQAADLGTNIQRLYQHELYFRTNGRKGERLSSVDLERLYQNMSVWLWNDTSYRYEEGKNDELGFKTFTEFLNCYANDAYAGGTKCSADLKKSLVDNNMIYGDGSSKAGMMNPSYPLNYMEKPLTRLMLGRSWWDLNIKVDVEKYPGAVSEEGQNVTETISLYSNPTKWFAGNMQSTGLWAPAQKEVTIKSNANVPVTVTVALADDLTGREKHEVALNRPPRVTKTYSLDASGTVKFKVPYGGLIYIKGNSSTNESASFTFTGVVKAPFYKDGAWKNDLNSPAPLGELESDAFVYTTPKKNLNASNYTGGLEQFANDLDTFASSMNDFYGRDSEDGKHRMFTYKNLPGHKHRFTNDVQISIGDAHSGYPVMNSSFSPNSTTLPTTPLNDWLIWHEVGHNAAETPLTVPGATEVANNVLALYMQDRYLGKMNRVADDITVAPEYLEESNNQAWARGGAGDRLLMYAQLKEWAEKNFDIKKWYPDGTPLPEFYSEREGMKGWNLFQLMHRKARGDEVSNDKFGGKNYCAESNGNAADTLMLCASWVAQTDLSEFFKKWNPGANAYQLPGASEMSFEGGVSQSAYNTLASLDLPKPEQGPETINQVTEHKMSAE

Each target was assayed with CC1(C)S[C@@H]2[C@H](NC(=O)[C@H](N)c3ccccc3)C(=O)N2[C@H]1C(=O)O [ampicillin] (assay: log2 fold change of tryptic peptide abundance, ligand vs vehicle (limited proteolysis) (log2 ratio); higher = more trypsin-susceptible (destabilized)). Conditions: ligand concentration: 10 uM; sample: E. coli crude lysate.

Target	log2 fold change
UniProt P13016 (peptide sequence: KTDPGPAFDWAR, peptide start residue: 162)	-0.335
UniProt P23836 (peptide sequence: ELSINDEVIK, peptide start residue: 140)	0.12
UniProt P16681 (peptide sequence: ISFGEMPK, peptide start residue: 32)	-0.112
UniProt P10902 (peptide sequence: AVVLATGGASK, peptide start residue: 199)	-0.161
UniProt P15977 (peptide sequence: RKLSATLESMFADDGVNK, peptide start residue: 661)	1.07
UniProt P0AGL5 (peptide sequence: AKEVYSAR, peptide start residue: 151)	0.0731
UniProt P15005 (peptide sequence: KNIILQGPPGVGK, peptide start residue: 195)	-0.598
UniProt P0DPP7 (peptide sequence: NKYLNSTR, peptide start residue: 41)	-0.0844
UniProt P19934 (peptide sequence: KMKEQQAAEELR, peptide start residue: 82)	-0.549
UniProt P21866 (peptide sequence: QLLNQVWGPNAVEHSHYLR, peptide start residue: 175)	0.428
UniProt P22255 (peptide sequence: AWKEECGVRK, peptide start residue: 131)	0.167
UniProt P17411 (peptide sequence: QLFELYKNPELK, peptide start residue: 292)	0.19
UniProt P0CF88 (peptide sequence: GTINIVNGTPIHER, peptide start residue: 208)	0.337
UniProt P23841 (peptide sequence: ENPNVDVLFR, peptide start residue: 122)	0.504
UniProt P14294 (peptide sequence: ATDGLGTEATR, peptide start residue: 518)	0.203
UniProt P22634 (peptide sequence: HLLPDLHYIYAFDNVAFPYGEK, peptide start residue: 42)	0.405
UniProt P18811 (peptide sequence: MVFLLHGGKDGEQLAQR, peptide start residue: 96)	-0.133

Target	log2 fold change
UniProt P23873 (peptide sequence: QQNGWTQSELAKK, peptide start residue: 22)	0.0977
UniProt P10908 (peptide sequence: CREHGMMANIEIKPTTGTGPLTGK, peptide start residue: 104)	0.285
UniProt P11290 (peptide sequence: DVIVKNNIK, peptide start residue: 174)	-0.113
UniProt P22186 (peptide sequence: LLIAPVLR, peptide start residue: 92)	-0.344
UniProt P20083 (peptide sequence: EVYYALTEEEKEGVLEQLKR, peptide start residue: 534)	0.373
MurF (peptide sequence: KLTPGCLFVALK, peptide start residue: 33) (UniProt P11880)	-1.22
UniProt P18776 (peptide sequence: DLTPEVSFRR, peptide start residue: 29)	-0.634
UniProt P21189 (peptide sequence: YAGLIQEGDK, peptide start residue: 617)	0.323
UniProt P24174 (peptide sequence: FIVAEQLR, peptide start residue: 66)	-0.0976
UniProt P17169 (peptide sequence: LKGLDASIEHDIVHGLQALPSR, peptide start residue: 423)	0.815
UniProt P21865 (peptide sequence: QLMIPEQQR, peptide start residue: 621)	0.574
UniProt P23869 (peptide sequence: EPIKNEANNGLK, peptide start residue: 66)	0.279
UniProt P23256 (peptide sequence: GDWALLTSGSK, peptide start residue: 223)	0.446
UniProt P24178 (peptide sequence: NCDTIKK, peptide start residue: 9)	0.268
UniProt P11454 (peptide sequence: VDSGKPLVFHQLIQVADNR, peptide start residue: 111)	0.699
UniProt P10423 (peptide sequence: NTPTEYGIR, peptide start residue: 160)	0.243
UniProt P0CK95 (peptide sequence: WFSLTTR, peptide start residue: 436)	0.128
